# Results taken from patent US9845292B2 (Max-Planck-Gesellschaft zur Förderung der Wissenschaften …, priority 2013, dated 2017).
# “Also recorded” adds a separate entry of the source. For at least one compound, name, drawing or mass did not settle the structure.
# Test system: N2a neuroblastoma cells
# Experiment: N2a cellular assay (neurite outgrowth)
# Format: cell-based
# Protocol: At day one N2a cells were plated into 24-well plates with cover slips (pretreated with polylysine) at a density of 35,000 cells/well and cultured with DMEM (incl. FCS 10% and Pen/Strep 1%) for 24 h. Next, cells were transfected with 80 ng expression plasmids encoding Venus as well as 720 ng pRK5 (mock transfection) in a total volume of 500 μl starvation media containing different concentrations of compounds or DMSO for 36 h (media without FCS; induction of neurite outgrowth). Therefore media was removed and replaced by 400 μl DMEM (empty). Next an equivalent volume of plasmids were given to 50 μl OPTIMEM and incubated for 5 min at RT. Additionally 1.5 μl Lipofectamine 2000 was separately dissolved in 50 μl OPTIMEM. After 5 min both solutions (plasmids and Lipofactamine 2000 containing media) were combined and incubated again for another 20 min. After that 100 μl of this mixture was given to 400 μl media per well. (See also protocol of the provider—Life Technologies).
# On the next day cells were washed with PBS and incubated for 30 min with 300 μl PFA (4%) and sucrose (5%) to fix cells. After fixation cells were washed three times, mounted onto microscope slides using 4 μl Vectashield (mounting media) and analyzed by fluorescence microscopy. Each bar represents the mean of the neurite length of 30-50 cells after the indicated treatment (FIGS. 1-2).
compound,measurement,setting,value
"C=CC[C@@H]1/C=C(\C)C[C@H](C)C[C@H](OC)[C@H]2O[C@@](O)(C(=O)C(=O)N3CCCC[C@H]3C(=O)O[C@H](/C(C)=C/[C@@H]3CC[C@@H](O)[C@H](OC)C3)[C@H](C)[C@@H](O)CC1=O)[C@H](C)C[C@@H]2OC [FK506, reference compound]",rescue of reduced neurite length triggered by Ru26988,"1 μM Ru26988, 10 nM A17, FIG. 2A, 2B",does not rescue reduced neurite length
same,protection of neurite outgrowth from the suppressing effect of high steroid concentrations,"1 μM aldosterone or 1 μM RU26988, FIG. 2A-2C",protective effect was not observed
same,rescue of reduction of neurite outgrowth triggered by aldosterone,"aldosterone 1 μM, FIG. 2B, 2C",cannot be blocked
same,effect on neurite outgrowth stimulated by selective FKBP51 inhibition,"in the presence of 100 nM A17, FIG. 1C",blocked the stimulating effect evoked by selective FKBP51 inhibition; also recorded: decreases neurite outgrowth of N2a cells in a dose-dependent manner
